Test results from the supplement of paper PMC6078165.

Test system: HCC1143
Assay: relative JC-1 red fluorescence (viability) vs pre-drug, coculture with fibroblast (fraction); higher = more viable cancer cells
Method: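 JC-1 labelled TNBC cells cocultured 1:1 (1,500 cells each) with CellTrace Violet stained primary or stromal fibroblasts in 384-well plates in FluoroBrite medium, treated with one of 42 anticancer drugs at 0.1, 1, 10 or 100 uM. JC-1 red fluorescence (mitochondrial integrity in cancer cells only) was read by plate reader every 8 h for 72 h. Values are normalised to each well's pre-drug value. The stock of one drug was tenfold lower, so its dose labels may be too high.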

O=C(CCCCCCC(=O)Nc1ccccc1)NO [Vorinostat]
relative JC-1 red fluorescence
Details | 8 h | 16 h | 24 h | 32 h | 40 h | 48 h | 56 h | 64 h | 72 h
0.1 µM, coculture fibroblast: C12385 | 0.842 | 0.76 | 0.699 | 0.633 | 0.565 | 0.503 | 0.46 | 0.415 | 0.397
0.1 µM, coculture fibroblast: H6013 | 0.772 | 0.693 | 0.66 | 0.639 | 0.569 | 0.558 | 0.52 | 0.498 | 0.468
0.1 µM, coculture fibroblast: H6019 | 0.801 | 0.714 | 0.661 | 0.6078 | 0.5686 | 0.542 | 0.497 | 0.454 | 0.419
0.1 µM, coculture fibroblast: H6076 | 0.7928 | 0.814 | 0.75 | 0.6733 | 0.64 | 0.617 | 0.579 | 0.5509 | 0.5538
0.1 µM, coculture fibroblast: H6231 | 0.817 | 0.837 | 0.757 | 0.63 | 0.668 | 0.639 | 0.601 | 0.569 | 0.55
0.1 µM, coculture fibroblast: HADF | 0.7052 | 0.6138 | 0.5748 | 0.56629 | 0.4545 | 0.4229 | 0.389 | 0.3635 | 0.352
0.1 µM, coculture fibroblast: HCFa | 0.783 | 0.708 | 0.66 | 0.638 | 0.545 | 0.519 | 0.468 | 0.428 | 0.405
0.1 µM, coculture fibroblast: HCPF | 0.793 | 0.79 | 0.734 | 0.616 | 0.63 | 0.595 | 0.546 | 0.51 | 0.489
0.1 µM, coculture fibroblast: HHSteC | 0.83 | 0.768 | 0.724 | 0.686 | 0.617 | 0.589 | 0.543 | 0.513 | 0.459
0.1 µM, coculture fibroblast: HMF | 0.7831 | 0.861 | 0.761 | 0.618 | 0.641 | 0.59 | 0.523 | 0.475 | 0.44
0.1 µM, coculture fibroblast: HPFa | 0.8799 | 0.772 | 0.722 | 0.633 | 0.574 | 0.536 | 0.472 | 0.417 | 0.379
0.1 µM, coculture fibroblast: HUF | 0.846 | 0.761 | 0.697 | 0.627 | 0.579 | 0.539 | 0.495 | 0.459 | 0.44
0.1 µM, coculture fibroblast: Hs5 | 0.828 | 0.8932 | 0.828 | 0.761 | 0.715 | 0.677 | 0.629 | 0.592 | 0.566
0.1 µM, coculture fibroblast: Hs27A | 0.712 | 0.6066 | 0.565 | 0.57 | 0.452 | 0.437 | 0.387 | 0.359 | 0.335
0.1 µM, coculture fibroblast: Hs343T | 0.8144 | 0.856 | 0.79 | 0.665 | 0.654 | 0.609 | 0.5572 | 0.5292 | 0.498
0.1 µM, coculture fibroblast: WS1 | 0.80794 | 0.7231 | 0.6613 | 0.57883 | 0.514 | 0.469 | 0.409 | 0.372 | 0.346
1 µM, coculture fibroblast: C12385 | 0.856 | 0.761 | 0.67 | 0.578 | 0.503 | 0.447 | 0.406 | 0.37 | 0.361
1 µM, coculture fibroblast: H6013 | 0.739 | 0.644 | 0.58 | 0.543 | 0.475 | 0.466 | 0.44 | 0.4276 | 0.389
1 µM, coculture fibroblast: H6019 | 0.805 | 0.725 | 0.683 | 0.627 | 0.599 | 0.571 | 0.539 | 0.511 | 0.487
1 µM, coculture fibroblast: H6076 | 0.805 | 0.808 | 0.725 | 0.691 | 0.638 | 0.629 | 0.594 | 0.574 | 0.583
1 µM, coculture fibroblast: H6231 | 0.7826 | 0.821 | 0.709 | 0.544 | 0.58 | 0.53 | 0.492 | 0.453 | 0.429
1 µM, coculture fibroblast: HADF | 0.7172 | 0.63 | 0.5835 | 0.578 | 0.4703 | 0.44064 | 0.4099 | 0.3873 | 0.3703
1 µM, coculture fibroblast: HCFa | 0.805 | 0.717 | 0.677 | 0.648 | 0.582 | 0.559 | 0.515 | 0.487 | 0.438
1 µM, coculture fibroblast: HCPF | 0.775 | 0.813 | 0.721 | 0.604 | 0.625 | 0.586 | 0.533 | 0.498 | 0.486
1 µM, coculture fibroblast: HHSteC | 0.787 | 0.684 | 0.616 | 0.5591 | 0.474 | 0.443 | 0.395 | 0.373 | 0.328
1 µM, coculture fibroblast: HMF | 0.8 | 0.827 | 0.7055 | 0.62 | 0.586 | 0.554 | 0.51 | 0.483 | 0.464
1 µM, coculture fibroblast: HPFa | 0.92 | 0.805 | 0.752 | 0.659 | 0.595 | 0.566 | 0.503 | 0.4675 | 0.4395
1 µM, coculture fibroblast: HUF | 0.86 | 0.756 | 0.687 | 0.6025 | 0.56 | 0.527 | 0.487 | 0.447 | 0.426
1 µM, coculture fibroblast: Hs5 | 0.815 | 0.87 | 0.774 | 0.729 | 0.669 | 0.635 | 0.585 | 0.552 | 0.537
1 µM, coculture fibroblast: Hs27A | 0.666 | 0.568 | 0.518 | 0.571 | 0.457 | 0.451 | 0.414 | 0.403 | 0.403
1 µM, coculture fibroblast: Hs343T | 0.796 | 0.8126 | 0.718 | 0.655 | 0.613 | 0.583 | 0.534 | 0.511 | 0.493
1 µM, coculture fibroblast: WS1 | 0.833 | 0.759 | 0.68 | 0.595 | 0.533 | 0.479 | 0.434 | 0.398 | 0.381
10 µM, coculture fibroblast: C12385 | 0.851 | 0.736 | 0.664 | 0.599 | 0.536 | 0.499 | 0.479 | 0.447 | 0.434
10 µM, coculture fibroblast: H6013 | 0.767 | 0.653 | 0.602 | 0.585 | 0.535 | 0.542 | 0.522 | 0.514 | 0.469
10 µM, coculture fibroblast: H6019 | 0.796 | 0.721 | 0.673 | 0.622 | 0.61 | 0.601 | 0.577 | 0.565 | 0.555
10 µM, coculture fibroblast: H6076 | 0.786 | 0.799 | 0.708 | 0.613 | 0.587 | 0.569 | 0.543 | 0.52 | 0.526
10 µM, coculture fibroblast: H6231 | 0.828 | 0.865 | 0.734 | 0.579 | 0.605 | 0.566 | 0.526 | 0.499 | 0.485
10 µM, coculture fibroblast: HADF | 0.762 | 0.665 | 0.611 | 0.586 | 0.513 | 0.504 | 0.475 | 0.455 | 0.421
10 µM, coculture fibroblast: HCFa | 0.76 | 0.63 | 0.569 | 0.547 | 0.441 | 0.415 | 0.379 | 0.349 | 0.329
10 µM, coculture fibroblast: HCPF | 0.8086 | 0.789 | 0.7 | 0.592 | 0.5786 | 0.53636 | 0.4916 | 0.4549 | 0.441
10 µM, coculture fibroblast: HHSteC | 0.8095 | 0.708 | 0.648 | 0.581 | 0.516 | 0.498 | 0.455 | 0.433 | 0.377
10 µM, coculture fibroblast: HMF | 0.797 | 0.827 | 0.729 | 0.596 | 0.606 | 0.562 | 0.5147 | 0.484 | 0.4531
10 µM, coculture fibroblast: HPFa | 0.9108 | 0.779 | 0.692 | 0.589 | 0.526 | 0.499 | 0.462 | 0.442 | 0.424
10 µM, coculture fibroblast: HUF | 0.882 | 0.773 | 0.692 | 0.618 | 0.58 | 0.566 | 0.53 | 0.527 | 0.519
10 µM, coculture fibroblast: Hs5 | 0.8251 | 0.887 | 0.784 | 0.693 | 0.624 | 0.584 | 0.5488 | 0.531 | 0.525
10 µM, coculture fibroblast: Hs27A | 0.722 | 0.615 | 0.561 | 0.572 | 0.476 | 0.479 | 0.459 | 0.454 | 0.4452
10 µM, coculture fibroblast: Hs343T | 0.802 | 0.814 | 0.7101 | 0.593 | 0.567 | 0.518 | 0.468 | 0.444 | 0.425
10 µM, coculture fibroblast: WS1 | 0.829 | 0.716 | 0.631 | 0.55 | 0.493 | 0.456 | 0.42 | 0.396 | 0.374
100 µM, coculture fibroblast: C12385 | 0.834 | 0.724 | 0.6063 | 0.507 | 0.431 | 0.384 | 0.348 | 0.32018 | 0.307
100 µM, coculture fibroblast: H6013 | 0.7719 | 0.668 | 0.597 | 0.575 | 0.499 | 0.497 | 0.475 | 0.471 | 0.431
100 µM, coculture fibroblast: H6019 | 0.82 | 0.7277 | 0.658 | 0.5755 | 0.539 | 0.526 | 0.51 | 0.49 | 0.47
100 µM, coculture fibroblast: H6076 | 0.7863 | 0.732 | 0.658 | 0.61 | 0.534 | 0.53 | 0.519 | 0.508 | 0.538
100 µM, coculture fibroblast: H6231 | 0.829 | 0.765 | 0.6675 | 0.633 | 0.5595 | 0.5465 | 0.513 | 0.487 | 0.48
100 µM, coculture fibroblast: HADF | 0.744 | 0.6365 | 0.544 | 0.492 | 0.402 | 0.389 | 0.355 | 0.33 | 0.288
100 µM, coculture fibroblast: HCFa | 0.77 | 0.625 | 0.537 | 0.478 | 0.368 | 0.344 | 0.306 | 0.292 | 0.26
100 µM, coculture fibroblast: HCPF | 0.8252 | 0.783 | 0.686 | 0.62 | 0.565 | 0.526 | 0.486 | 0.456 | 0.442
100 µM, coculture fibroblast: HHSteC | 0.788 | 0.671 | 0.571 | 0.493 | 0.403 | 0.379 | 0.337 | 0.317 | 0.262
100 µM, coculture fibroblast: HMF | 0.791 | 0.769 | 0.654 | 0.58 | 0.515 | 0.484 | 0.451 | 0.425 | 0.41
100 µM, coculture fibroblast: HPFa | 0.89 | 0.7597 | 0.663 | 0.555 | 0.472 | 0.447 | 0.414 | 0.3944 | 0.375
100 µM, coculture fibroblast: HUF | 0.862 | 0.756 | 0.649 | 0.542 | 0.481 | 0.451 | 0.405 | 0.384 | 0.368
100 µM, coculture fibroblast: Hs5 | 0.868 | 0.807 | 0.755 | 0.742 | 0.654 | 0.63 | 0.618 | 0.608 | 0.6278
100 µM, coculture fibroblast: Hs27A | 0.728 | 0.613 | 0.512 | 0.507 | 0.417 | 0.429 | 0.411 | 0.4 | 0.359
100 µM, coculture fibroblast: Hs343T | 0.792 | 0.7704 | 0.68 | 0.604 | 0.539 | 0.513 | 0.483 | 0.468 | 0.464
100 µM, coculture fibroblast: WS1 | 0.812 | 0.689 | 0.611 | 0.504 | 0.43 | 0.383 | 0.347 | 0.321 | 0.305

The reference is the same well before dosing, and untreated signal decays as well.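 Fibroblast labels name human fibroblasts: mostly primary ones from tissues such as uterus (C12385, HUF), lung (H6013), bone (Hs27A), adrenal (HADF) and skin (WS1), plus mammary HMF and breast cancer-associated Hs343T. The cancer cells are basal-like or mesenchymal-like triple-negative breast cancer lines. The paper calls a changed response a hit when it shifts by more than 3x the replicate standard deviation. The tissue of the other fibroblasts is not given here.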
